# Publication PMC5181583
# These are yes or no findings as the source states them, for the method shown. A result given as binding can be weak or reduced; the word gives no strength. Sequences can lack the tags named with a protein. For some assays here: Binding seen in cells or lysates may run through a third protein.
# Tests used:
# [1] = target: T1, OsNF-YB1-GFP (rice (Oryza sativa)) (UniProt Q6Z348); test: co-IP; tobacco leaves co-transformed with OsNF-YB1-GFP and OsNF-YC11-mCherry or OsNF-YC12-mCherry; lysate in 50 mM Tris-HCl pH 7.5, 1 mM EDTA, 150 mM NaCl, 10% glycerol, 1% NP-40; IP with anti-GFP on Dynabeads Protein G, blot with anti-GFP and anti-mCherry
# T1 sequence: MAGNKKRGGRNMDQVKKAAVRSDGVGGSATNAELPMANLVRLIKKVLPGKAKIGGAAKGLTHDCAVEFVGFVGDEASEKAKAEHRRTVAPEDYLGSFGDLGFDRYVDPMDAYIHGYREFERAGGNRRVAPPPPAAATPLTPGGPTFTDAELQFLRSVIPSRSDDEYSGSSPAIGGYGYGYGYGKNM
# [2] = target: T2, OsNF-YB1 fused to the GAL4 binding domain (pGBKT7 bait) (rice (Oryza sativa)) (UniProt Q6Z348); test: two-hybrid; yeast AH109; OsNF-YB1 in pGBKT7 (BD) as bait, NF-YCs or ERFs in pGADT7 (AD) as prey; growth on SD/-Leu/-Trp/-His/-Ade
# T2 sequence: T1 sequence
Substance,binding [1],binding [2]
OsNF-YC9 in pGADT7 prey plasmid (rice (Oryza sativa)),,binds
OsNF-YC10 in pGADT7 prey plasmid (rice (Oryza sativa)),,binds
OsERF#114 fused to the activation domain (pGADT7 prey) (rice (Oryza sativa)),,no binding
OsNF-YC8 in pGADT7 prey plasmid (rice (Oryza sativa)),,binds
OsERF#074 fused to the activation domain (pGADT7 prey) (rice (Oryza sativa)),,no binding
OsNF-YC12 in pGADT7 prey plasmid (rice (Oryza sativa)),,binds

# The remaining lines, values ahead:
binding [1],binding [2],Substance
binds,,OsNF-YC12-mCherry (rice (Oryza sativa))
,binds,OsNF-YC11 in pGADT7 prey plasmid (rice (Oryza sativa))
,no binding,OsERF#072 fused to the activation domain (pGADT7 prey) (rice (Oryza sativa))
binds,,OsNF-YC11-mCherry (rice (Oryza sativa))
,binds,OsERF#115 fused to the activation domain (pGADT7 prey) (rice (Oryza sativa))
